Results are given in words; binding and its absence hold for the method and conditions named. Binding seen in cells or lysates may run through a third protein. Some entries that bind do so weakly or less than the wild type.
Target: T1, USP47 (human (endogenous in HGC-27)) (UniProt Q96K76)
T1 sequence: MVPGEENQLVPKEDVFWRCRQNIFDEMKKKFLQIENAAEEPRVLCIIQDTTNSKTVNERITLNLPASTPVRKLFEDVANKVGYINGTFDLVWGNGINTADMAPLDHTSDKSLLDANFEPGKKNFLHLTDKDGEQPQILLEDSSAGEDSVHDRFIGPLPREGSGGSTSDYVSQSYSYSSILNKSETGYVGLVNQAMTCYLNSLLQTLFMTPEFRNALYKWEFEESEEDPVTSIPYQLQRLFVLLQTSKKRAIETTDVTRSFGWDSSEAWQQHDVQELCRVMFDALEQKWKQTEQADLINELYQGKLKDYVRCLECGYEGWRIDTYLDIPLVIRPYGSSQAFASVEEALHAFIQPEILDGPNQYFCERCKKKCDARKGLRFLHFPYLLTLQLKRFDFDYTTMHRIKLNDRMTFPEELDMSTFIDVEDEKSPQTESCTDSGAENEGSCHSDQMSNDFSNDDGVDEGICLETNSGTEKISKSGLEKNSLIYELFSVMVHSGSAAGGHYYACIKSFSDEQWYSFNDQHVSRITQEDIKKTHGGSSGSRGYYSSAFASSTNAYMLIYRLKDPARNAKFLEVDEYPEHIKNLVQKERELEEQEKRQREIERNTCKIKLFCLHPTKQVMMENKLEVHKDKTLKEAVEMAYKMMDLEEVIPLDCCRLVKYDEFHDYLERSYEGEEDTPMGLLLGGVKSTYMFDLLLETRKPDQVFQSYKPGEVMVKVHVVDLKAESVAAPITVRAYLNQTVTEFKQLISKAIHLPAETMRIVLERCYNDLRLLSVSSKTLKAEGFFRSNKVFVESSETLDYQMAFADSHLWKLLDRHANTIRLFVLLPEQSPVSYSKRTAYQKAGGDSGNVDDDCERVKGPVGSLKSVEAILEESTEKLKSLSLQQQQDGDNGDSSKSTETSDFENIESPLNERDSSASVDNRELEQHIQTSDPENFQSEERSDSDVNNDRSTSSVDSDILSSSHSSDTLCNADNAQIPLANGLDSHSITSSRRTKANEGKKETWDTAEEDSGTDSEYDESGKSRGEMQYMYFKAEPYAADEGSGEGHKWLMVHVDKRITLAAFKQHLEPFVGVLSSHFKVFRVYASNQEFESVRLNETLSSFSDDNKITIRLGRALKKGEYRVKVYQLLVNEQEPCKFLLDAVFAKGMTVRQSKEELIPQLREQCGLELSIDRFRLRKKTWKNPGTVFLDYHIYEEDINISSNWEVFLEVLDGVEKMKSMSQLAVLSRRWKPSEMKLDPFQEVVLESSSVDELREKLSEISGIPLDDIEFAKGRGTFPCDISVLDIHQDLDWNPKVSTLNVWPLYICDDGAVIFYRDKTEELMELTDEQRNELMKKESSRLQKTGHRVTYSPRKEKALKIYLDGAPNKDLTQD
Test: co-IP; whole-cell lysates of HGC-27 cells (20 mM Tris-HCl pH 8.0, 150 mM NaCl, 1 mM EDTA, 0.5% NP40, 10% glycerol); IP with anti-USP47 antibody (IgG as control), protein A/G magnetic beads, 4°C; immunoblot with anti-USP47 or anti-Snai1

Sequences of proteins named here, by UniProt entry; tags and fusion partners are left off.
UniProt O95863: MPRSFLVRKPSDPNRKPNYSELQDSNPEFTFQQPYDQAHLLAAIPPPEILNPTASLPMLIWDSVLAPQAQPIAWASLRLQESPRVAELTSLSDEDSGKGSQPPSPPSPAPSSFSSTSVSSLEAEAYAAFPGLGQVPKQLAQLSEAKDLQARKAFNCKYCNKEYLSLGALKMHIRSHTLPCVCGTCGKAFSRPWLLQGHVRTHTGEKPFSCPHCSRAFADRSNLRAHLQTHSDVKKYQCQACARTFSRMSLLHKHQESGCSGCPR

- binding: binds
Substance: Snai1 (from UniProt O95863 1-264)
